Data from PubChem BioAssay AID1918941 (Molecular Pharmacology Branch, DTP, NCI, 2023).
“And” between values parts separate entries of the source, which are not always exact repeats. Identical values can stand only once. This continues a long series; more values of the same kind are listed elsewhere.

Tested on: SW 1271 complex spheroids, viability
Assay: Anticancer human tumor SW 1271 cell line growth inhibition [LSD1];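 also: spheroids exposed to agents for 7 days before luminescence read; 100% = DMSO vehicle control viability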
Details: compound 10 µM; active compounds read low
From the text: Multicellular complex tumor spheroid response to LSD1 Inhibitor Iadademstat in combination with a variety of drugs and investigational agents in selected tumor cell lines
The current study was undertaken to assess response to LSD1 inhibitors in combination with standard-of-care drugs and investigational agents in solid tumor complex spheroid models as well as in the K-562 leukemia. Complex spheroids include a stromal component modeled by human endothelial cells (HUVEC) and fibroblasts modeled by human mesenchymal stem cells (MSCs). The concentration ranges selected for each drug and investigational agent were based upon clinically achievable concentrations if the clinical Cmax of the agent was known.
Compounds. The drugs and investigational agents used in this study are listed on Table 1. All of the agents used, including staurosporine (NSC755774) and gemcitabine (NSC613327), were obtained from the Developmental Therapeutics Program, NCI. FDA-approved anticancer drugs are available from the NCI at http://dtp.nci.nih.gov/branches/dscb/oncology_drugset_explanation.html. Drugs and investigational agents were >95% pure by proton nuclear magnetic resonance (NMR) and liquid chromatography/mass spectrometry (LC/MS). […] If the clinical Cmax for an agent had not been determined, the highest concentration tested was 10 microM. […]

NC1CCC(NC2CC2c2ccccc2)CC1 (stereo unspecified)
viability, T/C: 87% and 83.4%
